In patent publication US20060134221A1, “Methods for producing block copolymer/amphiphilic particles” (priority 2004, published 2006):
At least one compound was matched to its structure with a doubt left.

Assay: Dissolution characteristics of BAK homologs in PBS
Format: physicochemical
Description: Stock solutions of benzyldimethyldodecylammonium chloride (BAK C12, Fluka Chemical Corp., Milwaukee, Wis., cat #53233), benzyldimethyltetradecylammonium chloride (BAK C14, TCI America, Portland, Oreg., cat #A0208), benzyldimethylhexadecyllammonium chloride (BAK C16, TCI America, Portland, Oreg., cat #B0237) and benzyldimethyloctadecylammonium chloride (BAK C18, TCI America, Portland, Oreg., cat #B1297) were made in PBS.

## CCCCCCCCCCCCCCCC[N+](C)(C)Cc1ccccc1.[Cl-] [BAK C16, benzyldimethylhexadecyllammonium chloride]
Concentration in PBS 2 mM
  Precipitates at 25° C.?: Y
Concentration in PBS 5 mM
  Precipitates at 25° C.?: Y
